# Data: the supplement of paper PMC4604168 (melanoma cell lines)
# The list shows a part of the results. Many values rest on one well or one pass, so single values are uncertain.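 The apoptosis fraction was the count of cleaved-PARP antibody-stained nuclei relative to all DNA-stained nuclei, imaged in 1,536-well plates. Screening doses were set so most cells survived, and baseline and induced cleaved-PARP levels vary greatly across cell lines.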
# How the values were obtained:
# Assay in all cases: cleaved PARP positive nuclei fraction relative to DMSO control; melanoma cells; higher = more apoptosis
# Conditions in all cases: library dose: low library concentration; 72 h
# WM115 = test system: WM115
# WM1716 = test system: WM1716
# WM1745 = test system: WM1745
# WM3526 = test system: WM3526
# WM3619 = test system: WM3619
# WM451Lu = test system: WM451Lu
SMILES,cleaved PARP positive nuclei fraction (WM115),cleaved PARP positive nuclei fraction (WM1716),cleaved PARP positive nuclei fraction (WM1745),cleaved PARP positive nuclei fraction (WM3526),cleaved PARP positive nuclei fraction (WM3619),cleaved PARP positive nuclei fraction (WM451Lu)
"COc1cc([C@@H]2c3cc4c(cc3[C@@H](O[C@@H]3O[C@@H]5CO[C@@H](C)O[C@H]5[C@H](O)[C@H]3O)[C@H]3COC(=O)[C@H]23)OCO4)cc(OC)c1O [etoposide] + CC1(C)CCC(c2ccc(Cl)cc2)=C(CN2CCN(c3ccc(C(=O)NS(=O)(=O)c4ccc(N[C@H](CCN5CCOCC5)CSc5ccccc5)c(S(=O)(=O)C(F)(F)F)c4)cc3)CC2)C1 [ABT263] (first compound 0.02 µM, partner dose 0.4 µM)",415%,72.4%,804%,123%,98.4%,69.4%
"O=c1[nH]nc(Sc2ncc([N+](=O)[O-])s2)n1-c1ccc2c(c1)OCCO2 + COc1ccc(Cl)c(Nc2nc3ccccc3nc2NS(=O)(=O)c2cccc(NC(=O)C(C)(C)N)c2)c1 [XL147] (first compound 0.2 µM, partner dose 0.8 µM)",135%,71.7%,254%,37.5%,97.5%,112%
"CCCCCCCCCCCCCCCCCCOP(=O)([O-])OC1CC[N+](C)(C)CC1 [Perifosine] + Clc1ccc(Nc2nnc(Cc3ccncc3)c3ccccc23)cc1 [vatalanib] (first compound 0.4 µM, partner dose 2 µM)",80.6%,95.7%,99.8%,84.9%,102%,38.1%
"O=C(Nc1cc(C(F)(F)F)cc(C(F)(F)F)c1)c1cc(Cl)ccc1O + Cc1cc(N2CCOCC2)cc2[nH]c(-c3c(NC[C@@H](O)c4cccc(Cl)c4)cc[nH]c3=O)nc12 [BMS536924] (first compound 0.016 µM, partner dose 0.2 µM)",72.3%,89.2%,122%,72.9%,85.4%,103%
"O=C(/C=C/c1cccnc1)NCCCCC1CCN(C(=O)c2ccccc2)CC1 + Nc1nc(F)nc2c1ncn2[C@@H]1O[C@H](CO)[C@@H](O)[C@@H]1O [fludarabine] (first compound 0.01 µM, partner dose 0.2 µM)",250%,41.5%,102%,105%,98.5%,30.9%
"COc1cc([C@@H]2c3cc4c(cc3[C@@H](O[C@@H]3O[C@@H]5CO[C@@H](C)O[C@H]5[C@H](O)[C@H]3O)[C@H]3COC(=O)[C@H]23)OCO4)cc(OC)c1O [etoposide] + CN(c1ncccc1CNc1nc(Nc2ccc3c(c2)CC(=O)N3)ncc1C(F)(F)F)S(C)(=O)=O [PF562271] (first compound 0.02 µM, partner dose 0.08 µM)",67.7%,85.7%,211%,95.4%,108%,102%
"N#CC[C@H](C1CCCC1)n1cc(-c2ncnc3[nH]ccc23)cn1 [ruxolitinib] + C[C@@H]1CCN(C(=O)CC#N)C[C@@H]1N(C)c1ncnc2[nH]ccc12 [CP690550] (first compound 1 µM, partner dose 1 µM)",101%,42.3%,92.1%,50.7%,90.4%,48.5%
"CC[C@]1(O)C[C@H]2CN(CCc3c([nH]c4ccccc34)[C@@](C(=O)OC)(c3cc4c(cc3OC)N(C=O)[C@H]3[C@@](O)(C(=O)OC)[C@H](OC(C)=O)[C@]5(CC)C=CCN6CC[C@]43[C@@H]65)C2)C1 [vincristine] + O=C1NC(=O)/C(=C/c2ccc(-c3ccc(F)cc3O)o2)S1 [AS252424] (first compound 0.0001 µM, partner dose 1 µM)",1000%,317%,102%,96.3%,99.4%,73.7%
"CC[C@]1(O)C[C@H]2CN(CCc3c([nH]c4ccccc34)[C@@](C(=O)OC)(c3cc4c(cc3OC)N(C=O)[C@H]3[C@@](O)(C(=O)OC)[C@H](OC(C)=O)[C@]5(CC)C=CCN6CC[C@]43[C@@H]65)C2)C1 [vincristine] + O=C(Nc1cccc(Cl)c1)Nc1ncc(CCNc2ncnc3ccsc23)s1 [SNS314] (first compound 0.0001 µM, partner dose 0.0008 µM)",1080%,265%,112%,41.2%,156%,113%
"COc1cc([C@@H]2c3cc4c(cc3[C@@H](O[C@@H]3O[C@@H]5CO[C@@H](C)O[C@H]5[C@H](O)[C@H]3O)[C@H]3COC(=O)[C@H]23)OCO4)cc(OC)c1O [etoposide] + NCC(=O)Nc1ccc(-n2nc(C(F)(F)F)cc2-c2ccc3c(ccc4ccccc43)c2)cc1 [OSU03012] (first compound 0.02 µM, partner dose 1 µM)",70%,73.4%,99.1%,111%,96%,45.3%
"Cc1cn(-c2cc(NC(=O)c3ccc(C)c(Nc4nccc(-c5cccnc5)n4)c3)cc(C(F)(F)F)c2)cn1 [nilotinib] + COc1ccc(COc2ccc(Cc3cnc(N)nc3N)cc2OC)cc1 [GW2580] (first compound 0.2 µM, partner dose 1 µM)",94.6%,116%,97.1%,34.6%,84.4%,119%
"COc1cc([C@@H]2c3cc4c(cc3[C@@H](O[C@@H]3O[C@@H]5CO[C@@H](C)O[C@H]5[C@H](O)[C@H]3O)[C@H]3COC(=O)[C@H]23)OCO4)cc(OC)c1O [etoposide] + Cc1cc([N+](=O)[O-])ccc1NS(=O)(=O)c1cc(Cl)ccc1Cl [FH535] (first compound 0.02 µM, partner dose 1 µM)",118%,117%,83.4%,66.7%,99.3%,85.4%
"CC[C@]1(O)C[C@H]2CN(CCc3c([nH]c4ccccc34)[C@@](C(=O)OC)(c3cc4c(cc3OC)N(C=O)[C@H]3[C@@](O)(C(=O)OC)[C@H](OC(C)=O)[C@]5(CC)C=CCN6CC[C@]43[C@@H]65)C2)C1 [vincristine] + Clc1ccc(Nc2nnc(Cc3ccncc3)c3ccccc23)cc1 [vatalanib] (first compound 0.0001 µM, partner dose 2 µM)",2320%,557%,136%,81.6%,202%,258%
"COc1cc([C@@H]2c3cc4c(cc3[C@@H](O[C@@H]3O[C@@H]5CO[C@@H](C)O[C@H]5[C@H](O)[C@H]3O)[C@H]3COC(=O)[C@H]23)OCO4)cc(OC)c1O [etoposide] + COc1ccc2c(c1)CCC1C2CCC2(C)C(NCCCCCCN3C(=O)C=CC3=O)CCC12 [U73122] (first compound 0.02 µM, partner dose 0.4 µM)",71.9%,77.9%,103%,75.1%,108%,45.9%
"O=C(/C=C/c1cccnc1)NCCCCC1CCN(C(=O)c2ccccc2)CC1 + Cn1sc(=O)n(Cc2ccccc2)c1=O [TDZD-8] (first compound 0.01 µM, partner dose 0.4 µM)",107%,106%,82.1%,72.8%,88.4%,168%
"CC[C@]1(O)C[C@H]2CN(CCc3c([nH]c4ccccc34)[C@@](C(=O)OC)(c3cc4c(cc3OC)N(C=O)[C@H]3[C@@](O)(C(=O)OC)[C@H](OC(C)=O)[C@]5(CC)C=CCN6CC[C@]43[C@@H]65)C2)C1 [vincristine] + Cc1cc(Nc2cc(N3CCN(C)CC3)nc(/C=C/c3ccccc3)n2)n[nH]1 [ENMD2076] (first compound 0.0001 µM, partner dose 0.04 µM)",1490%,245%,183%,60.8%,177%,197%
"Cc1ccc(Nc2nccc(N(C)c3ccc4c(C)n(C)nc4c3)n2)cc1S(N)(=O)=O [Pazopanib] + C[C@@H](Oc1cc(-c2cnn(C3CCNCC3)c2)cnc1N)c1c(Cl)ccc(F)c1Cl [Crizotinib] (first compound 0.4 µM, partner dose 0.2 µM)",112%,178%,110%,101%,102%,97.6%
"O=C(Nc1cc(C(F)(F)F)cc(C(F)(F)F)c1)c1cc(Cl)ccc1O + Oc1nc(-c2ccc(C(F)(F)F)cc2)nc2c1CSCC2 [XAV939] (first compound 0.016 µM, partner dose 2 µM)",182%,94%,86.1%,156%,67.4%,37.9%
"Cc1cc(Nc2cc(N3CCN(C)CC3)nc(Sc3ccc(NC(=O)C4CC4)cc3)n2)n[nH]1 [Tozasertib] + NCC(=O)Nc1ccc(-n2nc(C(F)(F)F)cc2-c2ccc3c(ccc4ccccc43)c2)cc1 [OSU03012] (first compound 0.006 µM, partner dose 1 µM)",79.5%,209%,128%,82.8%,155%,58.5%
"Cc1ccc(Nc2nccc(N(C)c3ccc4c(C)n(C)nc4c3)n2)cc1S(N)(=O)=O [Pazopanib] + Oc1cc(-c2nc(-c3ccccc3)[nH]c2-c2ccncc2)ccc1Cl [L779450] (first compound 0.4 µM, partner dose 0.2 µM)",121%,207%,113%,62.8%,84.9%,22.3%
"CC[C@]1(O)C[C@H]2CN(CCc3c([nH]c4ccccc34)[C@@](C(=O)OC)(c3cc4c(cc3OC)N(C=O)[C@H]3[C@@](O)(C(=O)OC)[C@H](OC(C)=O)[C@]5(CC)C=CCN6CC[C@]43[C@@H]65)C2)C1 [vincristine] + COc1cc(Nc2ncc(F)c(Nc3ccc4c(n3)NC(=O)C(C)(C)O4)n2)cc(OC)c1OC [Tamatinib] (first compound 0.0001 µM, partner dose 0.4 µM)",1760%,290%,175%,99.7%,145%,1010%
"N#CC[C@H](C1CCCC1)n1cc(-c2ncnc3[nH]ccc23)cn1 [ruxolitinib] + CN(c1ncccc1CNc1nc(Nc2ccc3c(c2)CC(=O)N3)ncc1C(F)(F)F)S(C)(=O)=O [PF562271] (first compound 1 µM, partner dose 0.08 µM)",257%,41.9%,91.3%,83.6%,88.9%,57.3%
"CC[C@]1(O)C[C@H]2CN(CCc3c([nH]c4ccccc34)[C@@](C(=O)OC)(c3cc4c(cc3OC)N(C=O)[C@H]3[C@@](O)(C(=O)OC)[C@H](OC(C)=O)[C@]5(CC)C=CCN6CC[C@]43[C@@H]65)C2)C1 [vincristine] + CNC(=O)c1cc(Oc2ccc(NC(=O)Nc3ccc(Cl)c(C(F)(F)F)c3)cc2)ccn1 [sorafenib] (first compound 0.0001 µM, partner dose 0.4 µM)",1130%,182%,130%,94.8%,210%,100%
"COc1cc([C@@H]2c3cc4c(cc3[C@@H](O[C@@H]3O[C@@H]5CO[C@@H](C)O[C@H]5[C@H](O)[C@H]3O)[C@H]3COC(=O)[C@H]23)OCO4)cc(OC)c1O [etoposide] + CC(=O)O[C@@]12CO[C@@H]1C[C@H](O)[C@@]1(C)C(=O)[C@H](O)C3=C(C)[C@@H](OC(=O)[C@H](O)[C@@H](NC(=O)OC(C)(C)C)c4ccccc4)C[C@@](O)([C@@H](OC(=O)c4ccccc4)[C@H]21)C3(C)C [Docetaxel] (first compound 0.02 µM, partner dose 0.0001 µM)",289%,610%,108%,681%,109%,150%
"CCCCCCCCCCCCCCCCCCOP(=O)([O-])OC1CC[N+](C)(C)CC1 [Perifosine] + C=C(c1ccc(C(=O)O)cc1)c1cc2c(cc1C)C(C)(C)CCC2(C)C [Bexarotene] (first compound 0.4 µM, partner dose 2 µM)",37.1%,144%,119%,102%,104%,107%
"N#CC[C@H](C1CCCC1)n1cc(-c2ncnc3[nH]ccc23)cn1 [ruxolitinib] + CO[C@H]1C[C@@H]2CC[C@@H](C)[C@@](O)(O2)C(=O)C(=O)N2CCCC[C@H]2C(=O)O[C@H]([C@H](C)C[C@@H]2CC[C@@H](OCCO)[C@H](OC)C2)CC(=O)[C@H](C)/C=C(\C)[C@@H](O)[C@@H](OC)C(=O)[C@H](C)C[C@H](C)/C=C/C=C/C=C/1C [everolimus] (first compound 1 µM, partner dose 0.02 µM)",126%,74.7%,115%,49%,121%,31.2%
"Cc1cc(Nc2cc(N3CCN(C)CC3)nc(Sc3ccc(NC(=O)C4CC4)cc3)n2)n[nH]1 [Tozasertib] + O=C(Nc1cccc(Cl)c1)Nc1ncc(CCNc2ncnc3ccsc23)s1 [SNS314] (first compound 0.006 µM, partner dose 0.0008 µM)",116%,81.6%,116%,64.9%,83.5%,53.8%
"N#CC[C@H](C1CCCC1)n1cc(-c2ncnc3[nH]ccc23)cn1 [ruxolitinib] + OCCn1cc(-c2cnc3nnn(Cc4ccc5ncccc5c4)c3n2)cn1 [PF04217903] (first compound 1 µM, partner dose 1 µM)",131%,66.9%,103%,64.4%,86.8%,106%

# A run of entries taken from the entries so far, for reference:
SMILES,cleaved PARP positive nuclei fraction (WM115),cleaved PARP positive nuclei fraction (WM1716),cleaved PARP positive nuclei fraction (WM1745),cleaved PARP positive nuclei fraction (WM3526),cleaved PARP positive nuclei fraction (WM3619),cleaved PARP positive nuclei fraction (WM451Lu)
"CC[C@]1(O)C[C@H]2CN(CCc3c([nH]c4ccccc34)[C@@](C(=O)OC)(c3cc4c(cc3OC)N(C=O)[C@H]3[C@@](O)(C(=O)OC)[C@H](OC(C)=O)[C@]5(CC)C=CCN6CC[C@]43[C@@H]65)C2)C1 [vincristine] + O=C1NC(=O)/C(=C/c2ccc(-c3ccc(F)cc3O)o2)S1 [AS252424] (first compound 0.0001 µM, partner dose 1 µM)",1000%,317%,102%,96.3%,99.4%,73.7%
"CC[C@]1(O)C[C@H]2CN(CCc3c([nH]c4ccccc34)[C@@](C(=O)OC)(c3cc4c(cc3OC)N(C=O)[C@H]3[C@@](O)(C(=O)OC)[C@H](OC(C)=O)[C@]5(CC)C=CCN6CC[C@]43[C@@H]65)C2)C1 [vincristine] + O=C(Nc1cccc(Cl)c1)Nc1ncc(CCNc2ncnc3ccsc23)s1 [SNS314] (first compound 0.0001 µM, partner dose 0.0008 µM)",1080%,265%,112%,41.2%,156%,113%
